Values from PubChem BioAssay AID504774 (Drosophila RNAi Screening Center, 2011).
Screen: 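Fly genes whose loss alters survival after alkylation damage to DNA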 (primary screen). System: Drosophila Kc167 cells. Knock-down reagent: long dsRNA against Drosophila genes, about 0.25 µg dsRNA per well. Duration: about 6 days: 3 days knock-down, then 3 days with or without MMS. Conditions: methyl methanesulphonate 0.004% (w/v) for 3 days after knock-down. Detection: 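Viability in wells given MMS, read as ATP luminescence, normalised by quantiles plate by plate and averaged across replicates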. Scale: mean viability with MMS: higher = more surviving cells after MMS.
The deposit covers about 23,000 reagents; this is a random part of those with a known target gene and a result. 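Values are quantile-normalised luminescence on an arbitrary scale; higher means more cells surviving MMS.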 The numbers tell different reagents against one gene apart. Names joined by + are all predicted targets of the reagent. Further read-outs or replicates are left out here.

| gene knocked down | dsRNA no. | mean viability with MMS |
| --- | --- | --- |
| Su(Tpl) | 1 | 3.33e6 |
| Irbp | 1 | 3.71e6 |
| Irbp | 2 | 3.93e6 |
| CG14183 | 1 | 3.75e6 |
| Elp4 | 1 | 2.94e6 |
| CG1896 | 1 | 3.61e6 |
| Or42b | 1 | 3.62e6 |
| CG32079 | 1 | 3.60e6 |
| Sox21b | 1 | 3.78e6 |
| Sox21b | 2 | 3.18e6 |
| Sox21b | 3 | 2.66e6 |
| Sox21b | 4 | 3.43e6 |
| abd-A | 1 | 3.32e6 |
| abd-A | 2 | 2.52e6 |
| abd-A | 3 | 3.73e6 |
| c12.2 | 1 | 3.53e6 |
| GMF | 1 | 3.60e6 |
| Unc50 | 1 | 3.70e6 |
| CG7120 | 1 | 3.48e6 |
| Cad96Ca | 1 | 3.59e6 |
| Cad96Ca | 2 | 3.64e6 |
| Nufip | 1 | 3.45e6 |
| CG12766 | 1 | 3.51e6 |
| CG18549 | 1 | 3.47e6 |
| CG33459 | 1 | 3.42e6 |
| Gcn5 | 1 | 3.20e6 |
| Chc | 1 | 3.53e6 |
| RpL11 | 1 | 2.96e6 |
| CG15631 | 1 | 3.68e6 |
| Sec6 | 1 | 3.30e6 |
| neur | 1 | 3.81e6 |
| InR | 1 | 3.61e6 |
| CG8584 | 1 | 3.49e6 |

Continued (7 carried over from the part before).
| gene knocked down | dsRNA no. | mean viability with MMS |
| --- | --- | --- |
| Chc | 1 | 3.53e6 |
| RpL11 | 1 | 2.96e6 |
| CG15631 | 1 | 3.68e6 |
| Sec6 | 1 | 3.30e6 |
| neur | 1 | 3.81e6 |
| InR | 1 | 3.61e6 |
| CG8584 | 1 | 3.49e6 |
| RpS2 | 1 | 2.76e6 |
| CG3732 | 1 | 3.57e6 |
| CalpC | 1 | 3.40e6 |
| CG11106 | 1 | 3.60e6 |
| CG2217 + CG42740 | 1 | 3.53e6 |
| Prat | 1 | 3.34e6 |
| Prosalpha7 | 1 | 3.14e6 |
| fwe | 1 | 3.65e6 |
| fwe | 2 | 3.65e6 |
| fwe | 3 | 3.32e6 |
| CG5002 | 1 | 3.51e6 |
| Atu | 1 | 3.65e6 |
| ND-B18 | 1 | 3.53e6 |
| Ir94c | 1 | 3.45e6 |
| CG6834 | 1 | 3.52e6 |
| yellow-d | 1 | 3.58e6 |
| CG8046 | 1 | 3.48e6 |
| CG17110 | 1 | 3.71e6 |
| CG30065 | 1 | 3.66e6 |
| tacc | 1 | 3.40e6 |
| tacc | 2 | 3.36e6 |
| miple1 | 1 | 3.56e6 |
| ND-MLRQ | 1 | 3.47e6 |
| CG3335 | 1 | 3.37e6 |
| porin | 1 | 3.54e6 |
| ImpE3 | 1 | 3.46e6 |
| eIF4E1 | 1 | 3.09e6 |
| acj6 | 1 | 3.66e6 |
| CG32221 | 1 | 3.53e6 |
| CG17625 | 1 | 3.62e6 |
| zetaCOP | 1 | 3.43e6 |
| CG32982 | 1 | 3.19e6 |
| CG32982 | 2 | 3.74e6 |
| CG32982 | 3 | 3.65e6 |
| CG32982 | 4 | 3.81e6 |
| CG32982 | 5 | 3.57e6 |
